In the supplement of paper PMC10849652:
The list shows a part of the results.

By UniProt entry, the sequences of proteins in these tests, tags left out. Where a name states a change or a piece, a line headed by the entry shows the natural chain unless it says otherwise.
UniProt Q9ULR0: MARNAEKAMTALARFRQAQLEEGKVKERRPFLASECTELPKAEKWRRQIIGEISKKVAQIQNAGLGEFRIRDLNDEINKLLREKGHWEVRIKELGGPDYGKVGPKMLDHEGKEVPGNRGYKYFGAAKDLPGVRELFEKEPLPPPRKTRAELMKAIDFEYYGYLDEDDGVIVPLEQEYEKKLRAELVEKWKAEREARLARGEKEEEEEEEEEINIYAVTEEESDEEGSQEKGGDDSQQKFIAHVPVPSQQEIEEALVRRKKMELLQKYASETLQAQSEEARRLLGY
UniProt A1L0T0: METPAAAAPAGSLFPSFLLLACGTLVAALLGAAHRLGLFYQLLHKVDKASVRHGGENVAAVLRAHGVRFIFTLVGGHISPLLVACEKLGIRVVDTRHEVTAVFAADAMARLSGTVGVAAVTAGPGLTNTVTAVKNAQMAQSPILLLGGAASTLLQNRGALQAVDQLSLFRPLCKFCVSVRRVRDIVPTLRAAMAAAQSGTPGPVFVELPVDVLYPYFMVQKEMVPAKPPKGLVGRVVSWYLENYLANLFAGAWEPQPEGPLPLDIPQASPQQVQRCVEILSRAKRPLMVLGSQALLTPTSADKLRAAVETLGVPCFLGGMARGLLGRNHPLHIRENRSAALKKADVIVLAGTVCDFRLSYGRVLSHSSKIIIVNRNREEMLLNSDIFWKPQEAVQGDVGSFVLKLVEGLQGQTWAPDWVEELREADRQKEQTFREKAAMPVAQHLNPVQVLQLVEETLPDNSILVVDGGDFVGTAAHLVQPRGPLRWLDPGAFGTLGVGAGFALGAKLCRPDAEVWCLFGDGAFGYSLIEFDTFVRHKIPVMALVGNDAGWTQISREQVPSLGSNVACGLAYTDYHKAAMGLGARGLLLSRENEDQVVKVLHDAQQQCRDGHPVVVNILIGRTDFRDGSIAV
UniProt Q12894: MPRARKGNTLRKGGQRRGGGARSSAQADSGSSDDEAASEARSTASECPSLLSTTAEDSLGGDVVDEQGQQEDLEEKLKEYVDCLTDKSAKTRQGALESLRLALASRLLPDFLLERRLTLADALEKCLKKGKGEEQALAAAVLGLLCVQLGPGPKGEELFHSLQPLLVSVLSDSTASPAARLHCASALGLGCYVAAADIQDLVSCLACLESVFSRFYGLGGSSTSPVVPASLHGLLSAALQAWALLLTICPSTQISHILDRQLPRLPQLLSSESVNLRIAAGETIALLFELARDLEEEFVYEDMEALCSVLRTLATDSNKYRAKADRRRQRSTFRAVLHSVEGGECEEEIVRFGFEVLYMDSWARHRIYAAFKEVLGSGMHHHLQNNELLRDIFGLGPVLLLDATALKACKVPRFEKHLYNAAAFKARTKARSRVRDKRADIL
UniProt Q13576: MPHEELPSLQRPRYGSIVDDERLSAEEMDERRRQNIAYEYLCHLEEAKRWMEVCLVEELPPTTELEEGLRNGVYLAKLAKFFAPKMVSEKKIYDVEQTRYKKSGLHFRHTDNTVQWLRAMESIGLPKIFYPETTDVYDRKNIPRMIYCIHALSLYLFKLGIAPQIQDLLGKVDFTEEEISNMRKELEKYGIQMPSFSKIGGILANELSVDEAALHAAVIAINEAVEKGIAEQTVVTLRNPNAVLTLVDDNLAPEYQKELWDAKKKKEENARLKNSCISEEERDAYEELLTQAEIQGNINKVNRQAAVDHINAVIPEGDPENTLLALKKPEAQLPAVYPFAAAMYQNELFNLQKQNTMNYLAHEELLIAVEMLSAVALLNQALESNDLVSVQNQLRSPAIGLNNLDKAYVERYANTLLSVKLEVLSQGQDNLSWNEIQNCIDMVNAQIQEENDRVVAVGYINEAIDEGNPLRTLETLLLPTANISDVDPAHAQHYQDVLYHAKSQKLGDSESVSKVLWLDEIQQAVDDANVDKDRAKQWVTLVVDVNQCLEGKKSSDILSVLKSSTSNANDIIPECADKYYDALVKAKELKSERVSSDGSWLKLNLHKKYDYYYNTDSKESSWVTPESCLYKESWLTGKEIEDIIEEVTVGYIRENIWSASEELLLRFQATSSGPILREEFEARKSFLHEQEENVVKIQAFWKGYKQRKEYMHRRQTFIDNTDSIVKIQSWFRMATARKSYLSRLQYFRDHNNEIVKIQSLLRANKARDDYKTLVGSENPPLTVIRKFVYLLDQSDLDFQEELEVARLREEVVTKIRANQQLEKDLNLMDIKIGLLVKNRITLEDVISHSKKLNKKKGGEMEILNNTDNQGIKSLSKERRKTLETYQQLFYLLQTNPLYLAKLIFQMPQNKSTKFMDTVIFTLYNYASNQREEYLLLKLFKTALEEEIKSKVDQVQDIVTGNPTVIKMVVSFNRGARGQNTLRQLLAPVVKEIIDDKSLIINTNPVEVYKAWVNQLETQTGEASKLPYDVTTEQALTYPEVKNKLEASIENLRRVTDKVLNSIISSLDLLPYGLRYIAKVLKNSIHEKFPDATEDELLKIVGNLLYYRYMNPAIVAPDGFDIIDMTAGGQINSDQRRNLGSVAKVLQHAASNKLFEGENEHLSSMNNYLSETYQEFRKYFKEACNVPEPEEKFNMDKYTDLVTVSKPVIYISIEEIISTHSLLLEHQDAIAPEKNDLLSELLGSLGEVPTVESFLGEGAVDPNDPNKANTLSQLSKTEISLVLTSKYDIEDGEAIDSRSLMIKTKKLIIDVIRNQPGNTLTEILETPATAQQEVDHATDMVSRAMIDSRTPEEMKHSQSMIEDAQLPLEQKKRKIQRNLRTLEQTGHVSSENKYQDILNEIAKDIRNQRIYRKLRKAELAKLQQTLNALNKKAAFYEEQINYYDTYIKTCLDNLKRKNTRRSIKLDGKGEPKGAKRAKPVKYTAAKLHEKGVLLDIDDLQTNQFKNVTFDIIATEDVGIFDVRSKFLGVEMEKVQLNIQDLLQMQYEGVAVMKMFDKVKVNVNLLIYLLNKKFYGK
UniProt Q70UQ0: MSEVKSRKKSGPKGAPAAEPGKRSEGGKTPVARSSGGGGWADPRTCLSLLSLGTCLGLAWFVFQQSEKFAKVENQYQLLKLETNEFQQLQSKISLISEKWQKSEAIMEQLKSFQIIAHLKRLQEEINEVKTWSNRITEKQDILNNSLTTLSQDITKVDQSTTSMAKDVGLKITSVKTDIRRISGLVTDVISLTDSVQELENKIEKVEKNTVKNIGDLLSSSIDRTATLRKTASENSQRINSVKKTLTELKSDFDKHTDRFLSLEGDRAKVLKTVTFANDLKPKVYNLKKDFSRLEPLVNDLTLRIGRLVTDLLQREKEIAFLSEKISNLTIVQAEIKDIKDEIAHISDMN
UniProt Q9H0C8: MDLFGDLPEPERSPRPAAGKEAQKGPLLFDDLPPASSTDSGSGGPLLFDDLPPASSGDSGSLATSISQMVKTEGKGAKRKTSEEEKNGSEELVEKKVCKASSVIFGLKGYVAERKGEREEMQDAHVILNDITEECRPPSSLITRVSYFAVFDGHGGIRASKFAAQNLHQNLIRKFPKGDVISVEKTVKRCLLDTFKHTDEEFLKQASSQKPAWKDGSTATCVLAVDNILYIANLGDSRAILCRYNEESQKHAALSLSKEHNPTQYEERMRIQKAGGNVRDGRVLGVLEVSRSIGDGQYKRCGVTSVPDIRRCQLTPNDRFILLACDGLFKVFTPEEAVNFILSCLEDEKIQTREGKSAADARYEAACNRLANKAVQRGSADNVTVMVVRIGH
UniProt Q16891: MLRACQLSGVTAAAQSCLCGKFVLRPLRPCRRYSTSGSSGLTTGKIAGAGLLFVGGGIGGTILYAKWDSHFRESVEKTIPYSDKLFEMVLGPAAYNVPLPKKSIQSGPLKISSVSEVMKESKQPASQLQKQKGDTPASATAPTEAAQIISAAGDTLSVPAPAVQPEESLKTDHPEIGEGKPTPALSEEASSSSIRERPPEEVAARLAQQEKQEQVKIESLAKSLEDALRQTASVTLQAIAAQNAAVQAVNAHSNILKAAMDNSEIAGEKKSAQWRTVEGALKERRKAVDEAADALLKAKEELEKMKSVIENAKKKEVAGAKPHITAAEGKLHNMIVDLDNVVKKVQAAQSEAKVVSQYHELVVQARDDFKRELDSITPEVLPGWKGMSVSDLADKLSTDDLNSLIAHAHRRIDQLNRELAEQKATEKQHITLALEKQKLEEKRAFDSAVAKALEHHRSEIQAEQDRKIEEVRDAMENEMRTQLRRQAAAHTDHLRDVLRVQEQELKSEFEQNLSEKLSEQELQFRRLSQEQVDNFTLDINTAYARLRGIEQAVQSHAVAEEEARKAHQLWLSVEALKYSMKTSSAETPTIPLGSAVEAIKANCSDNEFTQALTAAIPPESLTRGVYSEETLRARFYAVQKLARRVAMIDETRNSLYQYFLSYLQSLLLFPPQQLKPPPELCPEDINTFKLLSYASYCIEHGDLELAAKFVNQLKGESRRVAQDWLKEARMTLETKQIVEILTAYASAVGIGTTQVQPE
UniProt P20839, whole entry, looked up: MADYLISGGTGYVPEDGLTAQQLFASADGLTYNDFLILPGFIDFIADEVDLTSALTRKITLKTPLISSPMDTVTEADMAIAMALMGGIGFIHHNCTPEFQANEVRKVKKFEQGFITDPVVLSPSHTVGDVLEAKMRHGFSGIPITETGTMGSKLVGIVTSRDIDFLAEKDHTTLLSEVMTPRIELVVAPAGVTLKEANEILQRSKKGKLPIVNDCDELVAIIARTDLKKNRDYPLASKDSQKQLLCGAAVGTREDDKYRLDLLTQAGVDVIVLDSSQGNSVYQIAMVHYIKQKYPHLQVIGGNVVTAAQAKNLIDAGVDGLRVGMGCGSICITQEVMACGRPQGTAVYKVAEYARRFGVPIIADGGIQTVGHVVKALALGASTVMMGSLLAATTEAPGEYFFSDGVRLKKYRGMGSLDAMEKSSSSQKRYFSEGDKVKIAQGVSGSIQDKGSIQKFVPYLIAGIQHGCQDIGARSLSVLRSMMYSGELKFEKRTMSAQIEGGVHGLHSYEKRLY
UniProt P18065: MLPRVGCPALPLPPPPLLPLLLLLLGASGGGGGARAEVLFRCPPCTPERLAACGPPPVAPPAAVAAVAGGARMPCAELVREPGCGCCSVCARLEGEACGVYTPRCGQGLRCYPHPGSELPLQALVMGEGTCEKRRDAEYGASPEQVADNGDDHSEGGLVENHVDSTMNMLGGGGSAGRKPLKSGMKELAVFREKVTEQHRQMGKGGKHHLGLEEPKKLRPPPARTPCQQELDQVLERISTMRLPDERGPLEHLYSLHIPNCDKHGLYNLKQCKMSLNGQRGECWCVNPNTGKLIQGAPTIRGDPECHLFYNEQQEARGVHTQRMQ
UniProt Q12905: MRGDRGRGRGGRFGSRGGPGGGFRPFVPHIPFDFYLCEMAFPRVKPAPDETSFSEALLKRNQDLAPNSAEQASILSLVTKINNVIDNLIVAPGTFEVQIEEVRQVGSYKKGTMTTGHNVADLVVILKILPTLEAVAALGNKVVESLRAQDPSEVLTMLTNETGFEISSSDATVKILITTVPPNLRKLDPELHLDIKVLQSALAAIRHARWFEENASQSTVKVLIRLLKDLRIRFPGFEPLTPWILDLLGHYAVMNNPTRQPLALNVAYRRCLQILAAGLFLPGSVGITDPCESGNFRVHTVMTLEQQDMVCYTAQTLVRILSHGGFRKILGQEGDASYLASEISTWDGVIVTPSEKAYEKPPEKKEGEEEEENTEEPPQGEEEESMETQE
UniProt P53990, whole entry, looked up: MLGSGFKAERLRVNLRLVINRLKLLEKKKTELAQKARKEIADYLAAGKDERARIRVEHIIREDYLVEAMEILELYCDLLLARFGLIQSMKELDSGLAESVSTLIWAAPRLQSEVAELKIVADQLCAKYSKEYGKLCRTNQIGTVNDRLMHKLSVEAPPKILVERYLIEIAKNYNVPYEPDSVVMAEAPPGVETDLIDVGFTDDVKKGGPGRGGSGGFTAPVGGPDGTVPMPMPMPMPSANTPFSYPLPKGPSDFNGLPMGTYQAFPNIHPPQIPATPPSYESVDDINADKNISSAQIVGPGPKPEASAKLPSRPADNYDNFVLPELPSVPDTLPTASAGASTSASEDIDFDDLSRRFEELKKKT
UniProt Q13422: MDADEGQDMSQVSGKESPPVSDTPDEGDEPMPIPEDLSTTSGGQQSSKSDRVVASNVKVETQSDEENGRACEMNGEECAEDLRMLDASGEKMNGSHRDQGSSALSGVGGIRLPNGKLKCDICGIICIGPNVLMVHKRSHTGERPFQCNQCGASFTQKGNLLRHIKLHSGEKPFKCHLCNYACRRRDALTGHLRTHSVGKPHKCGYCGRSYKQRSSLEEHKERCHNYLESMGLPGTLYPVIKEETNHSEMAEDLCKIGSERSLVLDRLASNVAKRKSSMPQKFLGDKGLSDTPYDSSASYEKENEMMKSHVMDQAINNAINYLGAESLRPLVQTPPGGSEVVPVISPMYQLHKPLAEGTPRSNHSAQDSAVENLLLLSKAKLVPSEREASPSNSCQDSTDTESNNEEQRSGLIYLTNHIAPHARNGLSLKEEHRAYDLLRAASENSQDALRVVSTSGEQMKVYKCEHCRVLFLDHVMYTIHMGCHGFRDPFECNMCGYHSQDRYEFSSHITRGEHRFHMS

Columns and labels:
Assay in all cases: log2 fold change, soluble protein after heating vs DMSO (PISA); higher = thermal stabilisation; K562 cells, 10 uM, 30 min; active = over 0.2 and 3.5 SD of the protein, either way, in both replicates (recomputed)
bafetinib = compound: Cc1ccc(NC(=O)c2ccc(CN3CC[C@H](N(C)C)C3)c(C(F)(F)F)c2)cc1Nc1nccc(-c2cncnc2)n1 [bafetinib]
How it was run: (§1)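 Values are thermal stability changes relative to control samples and are taken from duplicates. They are stated as log2 fold changes. Before quantification by TMTpro 16plex LC-MS/MS with equalised channel sums, K562 cells at 2×10^6 cells/mL were treated with 10 μM compound for 30 min, heated in aliquots for 3 min across 48°C-58°C, pooled, extracted in PBS with 0.5% NP-40 at 4°C, and centrifuged at 21,000xg for 90 min to give the soluble supernatant.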

[1] = compound: Cc1cccc(CC(=O)N2CCc3c2ccc(-c2cn(C)c4ncnc(N)c24)c3F)n1
How it was run: as §1

nilotinib = compound: Cc1cn(-c2cc(NC(=O)c3ccc(C)c(Nc4nccc(-c5cccnc5)n4)c3)cc(C(F)(F)F)c2)cn1 [nilotinib]
How it was run: as §1

[2] = compound: Cc1nc(Nc2n[nH]c3c2CN(C(=O)N[C@H](CN(C)C)c2ccccc2)C3(C)C)c2sccc2n1
How it was run: as §1

dasatinib = compound: Cc1nc(Nc2ncc(C(=O)Nc3c(C)cccc3Cl)s2)cc(N2CCN(CCO)CC2)n1 [dasatinib]
How it was run: as §1

[3] = compound: Cc1ncc(-c2ccnc(Nc3ccc(S(C)(=O)=O)cc3)n2)n1C(C)C
How it was run: as §1

[4] = compound: Cn1cc(-c2ccc3c(c2)CCN3C(=O)Cc2cccc(C(F)(F)F)c2)c2c(N)ncnc21
How it was run: as §1

[5] = compound: Cn1cc(-c2ccc3nnc(C(F)(F)c4ccc5ncccc5c4)n3n2)cn1
How it was run: as §1

tipifarnib = compound: Cn1cncc1[C@@](N)(c1ccc(Cl)cc1)c1ccc2c(c1)c(-c1cccc(Cl)c1)cc(=O)n2C [tipifarnib]
How it was run: as §1

mubritinib = compound: FC(F)(F)c1ccc(/C=C/c2nc(COc3ccc(CCCCn4ccnn4)cc3)co2)cc1 [mubritinib]
How it was run: as §1

[6] = compound: NC(=O)Nc1cc(-c2cccc(F)c2)sc1C(=O)N[C@H]1CCCNC1
How it was run: as §1

[7] = compound: NC(=O)c1cnc(N[C@@H]2CCCC[C@@H]2N)nc1Nc1cccc(-n2nccn2)c1
How it was run: as §1

[8] = compound: NC1(c2ccc(-c3nc4ccn5c(=O)[nH]nc5c4cc3-c3ccccc3)cc2)CCC1
How it was run: as §1

[9] = compound: NCC(=O)Nc1ccc(-n2nc(C(F)(F)F)cc2-c2ccc3c(ccc4ccccc43)c2)cc1
How it was run: as §1

entinostat = compound: Nc1ccccc1NC(=O)c1ccc(CNC(=O)OCc2cccnc2)cc1 [entinostat]
How it was run: as §1

vorinostat = compound: O=C(CCCCCCC(=O)Nc1ccccc1)NO [vorinostat]
How it was run: as §1

citarinostat = compound: O=C(CCCCCCNC(=O)c1cnc(N(c2ccccc2)c2ccccc2Cl)nc1)NO [citarinostat]
How it was run: as §1

silmitasertib = compound: O=C(O)c1ccc2c(c1)nc(Nc1cccc(Cl)c1)c1ccncc12 [silmitasertib]
How it was run: as §1

[10] = compound: O=C1NC(=O)C(c2cnc3ccccn23)=C1c1cn2c3c(cc(F)cc13)CN(C(=O)N1CCCCC1)CC2
How it was run: as §1

[11] = compound: c1cc(OCCN2CCCCC2)cc(-c2n[nH]c3ccc(-c4nnc[nH]4)cc23)c1
How it was run: as §1

Measured: log2 fold change

ISY1 isoform 1 (UniProt Q9ULR0)
inactive: bafetinib -0.071 | [1] -0.095 | nilotinib -0.036 | [2] 0.04 | dasatinib 0.122 | [3] 0.059 | [4] -0.073 | [5] 0.014 | tipifarnib 0.021 | mubritinib 0.068 | [6] 0.057 | [7] 0.03 | [8] 0.043 | [9] 0.035 | entinostat -0.024 | vorinostat -0.007 | citarinostat -0.041 | silmitasertib 0.059 | [10] 0.029 | [11] -0.069

ILVBL (UniProt A1L0T0)
inactive: bafetinib 0.065 | [1] -0.049 | nilotinib 0.074 | [2] 0.011 | dasatinib -0.09 | [3] -0.025 | [4] 0.247 | [5] -0.005 | tipifarnib -0.047 | mubritinib 0.041 | [6] -0.053 | [7] -0.036 | [8] -0.022 | [9] -0.007 | entinostat -0.041 | vorinostat 0.002 | citarinostat 0.064 | silmitasertib -0.008 | [10] -0.009 | [11] -0.064

IFRD2 isoform 2 (UniProt Q12894)
inactive: bafetinib -0.083 | [1] -0.019 | nilotinib 0.153 | [2] 0.047 | dasatinib 0.028 | [3] 0.236 | [4] 0.07 | [5] -0.176 | tipifarnib 0.08 | mubritinib 0.073 | [6] -0.044 | [7] -0.279 | [8] 0.003 | [9] 0.11 | entinostat -0.2 | vorinostat -0.244 | citarinostat -0.028 | silmitasertib 0.276 | [10] -0.008 | [11] 0.046

IQGAP2 (UniProt Q13576)
inactive: bafetinib 0.054 | [1] 0.074 | nilotinib -0.063 | [2] -0.152 | dasatinib -0.356 | [3] 0.017 | [4] -0.015 | [5] 0.05 | tipifarnib -0.167 | mubritinib 0.034 | [6] -0.022 | [7] 0.005 | [8] -0.118 | [9] -0.171 | entinostat 0.084 | vorinostat 0.166 | citarinostat 0.094 | silmitasertib 0.012 | [10] 0.017 | [11] -0.029

INPPL1 (UniProt O15357)
inactive: bafetinib -0.077 | [1] -0.093 | nilotinib -0.255 | [2] -0.083 | dasatinib -0.038 | [3] -0.115 | [4] -0.049 | [5] 0.066 | tipifarnib 0.059 | mubritinib 0.025 | [6] -0.182 | [7] -0.032 | [8] -0.127 | [9] -0.049 | entinostat 0.015 | vorinostat 0.018 | citarinostat 0.048 | silmitasertib 0.132 | [10] 0.013 | [11] -0.177

IKBIP isoform 4 (UniProt Q70UQ0)
inactive: bafetinib -0.051 | [1] -0.054 | nilotinib 0.007 | [2] 0.011 | dasatinib 0.063 | [3] -0.036 | [4] -0.014 | [5] 0.021 | tipifarnib 0.068 | mubritinib -0.066 | [6] -0.047 | [7] -0.032 | [8] -0.006 | [9] -0.015 | entinostat -0.023 | vorinostat -0.064 | citarinostat 0.003 | silmitasertib 0.047 | [10] -0.01 | [11] -0.081

ILKAP (UniProt Q9H0C8)
inactive: bafetinib 0.028 | [1] 0.079 | nilotinib 0.052 | [2] -0.117 | dasatinib -0.208 | [3] 0.02 | [4] 0.036 | [5] 0.045 | tipifarnib -0.093 | mubritinib 0.137 | [6] 0.015 | [7] -0.052 | [8] -0.224 | [9] -0.164 | entinostat 0.038 | vorinostat 0.06 | citarinostat 0.123 | silmitasertib 0.004 | [10] -0.144 | [11] -0.003

IMMT isoform 4 (UniProt Q16891)
inactive: bafetinib -0.119 | [1] 0.018 | nilotinib -0.038 | [2] 0.004 | dasatinib -0.019 | [3] 0.003 | [4] 0.015 | [5] 0.018 | tipifarnib -0.03 | mubritinib 0.012 | [6] -0.022 | [7] -0.083 | [8] -0.132 | [9] -0.056 | entinostat 0.021 | vorinostat 0.008 | citarinostat 0.007 | silmitasertib -0.038 | [10] -0.031 | [11] -0.035

IMPDH1 isoform 6 (UniProt P20839)
inactive: bafetinib 0.063 | [1] 0.033 | nilotinib -0.037 | [2] 0.043 | dasatinib 0.057 | [3] -0.024 | [4] -0.175 | [5] 0.011 | tipifarnib 0.084 | mubritinib -0.056 | [6] 0.033 | [7] 0.008 | [8] 0.012 | [9] 0.054 | entinostat -0.012 | vorinostat -0.015 | citarinostat -0.006 | silmitasertib -0.024 | [10] 0.004 | [11] -0.059

ITGB5 (UniProt P18084)
inactive: bafetinib -0.057 | [1] -0.024 | nilotinib 0.002 | [2] 0.023 | dasatinib 0.092 | [3] -0.018 | [4] 0.007 | [5] 0.032 | tipifarnib 0.038 | mubritinib 0.102 | [6] -0.009 | [7] 0.04 | [8] -0.038 | [9] 0.092 | entinostat -0.001 | vorinostat -0.019 | citarinostat 0.02 | silmitasertib 0.005 | [10] 0.081 | [11] -0.072

IGFBP2 (UniProt P18065)
inactive: bafetinib -0.512 | [1] 0.026 | nilotinib -0.034 | [2] 0.142 | dasatinib -0.1 | [3] 0.17 | [4] 0.17 | [5] -0.095 | tipifarnib -0.1 | mubritinib -0.135 | [6] 0.026 | [7] -0.043 | [8] -0.242 | [9] -0.037 | entinostat 0.04 | vorinostat 0.351 | citarinostat -0.068 | silmitasertib 0.267 | [10] -0.143 | [11] 0.064

Reprinted from the results shown (2 entries):
ILKAP (UniProt Q9H0C8)
inactive: bafetinib 0.028 | [1] 0.079 | nilotinib 0.052 | [2] -0.117 | dasatinib -0.208 | [3] 0.02 | [4] 0.036 | [5] 0.045 | tipifarnib -0.093 | mubritinib 0.137 | [6] 0.015 | [7] -0.052 | [8] -0.224 | [9] -0.164 | entinostat 0.038 | vorinostat 0.06 | citarinostat 0.123 | silmitasertib 0.004 | [10] -0.144 | [11] -0.003

IMMT isoform 4 (UniProt Q16891)
inactive: bafetinib -0.119 | [1] 0.018 | nilotinib -0.038 | [2] 0.004 | dasatinib -0.019 | [3] 0.003 | [4] 0.015 | [5] 0.018 | tipifarnib -0.03 | mubritinib 0.012 | [6] -0.022 | [7] -0.083 | [8] -0.132 | [9] -0.056 | entinostat 0.021 | vorinostat 0.008 | citarinostat 0.007 | silmitasertib -0.038 | [10] -0.031 | [11] -0.035

Later entries

ITFG1 (UniProt Q8TB96)
inactive: bafetinib -0.057 | [1] -0.003 | nilotinib 0.065 | [2] -0.033 | dasatinib -0.28 | [3] 0.023 | [4] 0.025 | [5] -0.01 | tipifarnib 0.017 | mubritinib 0.011 | [6] -0.044 | [7] 0.023 | [8] -0.075 | [9] 0.014 | entinostat -0.008 | vorinostat -0.013 | citarinostat -0.15 | silmitasertib 0.081 | [10] -0.105 | [11] -0.081

ILF2 (UniProt Q12905)
inactive: bafetinib 0.093 | [1] -0.012 | nilotinib -0.011 | [2] 0.251 | dasatinib 0.121 | [3] 0.3 | [4] -0.151 | [5] -0.084 | tipifarnib 0.006 | mubritinib -0.071 | [6] -0.02 | [7] 0.024 | [8] 0.121 | [9] 0.109 | entinostat -0.049 | vorinostat -0.059 | citarinostat -0.037 | silmitasertib 0.13 | [10] 0.378 | [11] -0.18

IMPDH2 (UniProt P12268)
inactive: bafetinib 0.088 | [1] 0.051 | nilotinib -0.031 | [2] 0.035 | dasatinib 0.045 | [3] -0.015 | [4] -0.104 | [5] -0.006 | tipifarnib 0.104 | mubritinib -0.045 | [6] -0.027 | [7] 0.018 | [8] 0.013 | [9] 0.106 | entinostat -0.036 | vorinostat 0.02 | citarinostat 0.001 | silmitasertib -0.007 | [10] 0.028 | [11] -0.09

IST1 isoform 5 (UniProt P53990)
inactive: bafetinib -0.02 | [1] -0.012 | nilotinib -0.018 | [2] 0.008 | dasatinib -0.09 | [3] -0.042 | [4] 0.028 | [5] 0.006 | tipifarnib -0.079 | mubritinib 0.054 | [6] 0.006 | [7] -0.107 | [8] 0.109 | [9] -0.06 | entinostat 0.053 | vorinostat -0.036 | citarinostat 0.042 | silmitasertib 0.007 | [10] -0.023 | [11] -0.054

IKZF1 (UniProt Q13422)
inactive: bafetinib -0.062 | [1] -0.004 | nilotinib 0.237 | [2] -0.347 | dasatinib -0.121 | [3] -0.112 | [4] 0.072 | [5] 0.119 | tipifarnib -0.026 | mubritinib -0.07 | [6] 0.164 | [7] -0.084 | [8] 0.21 | [9] -0.03 | entinostat 0.064 | vorinostat 0.003 | citarinostat 0.019 | silmitasertib -0.202 | [10] 0.004 | [11] -0.061
